Results on three molecules are retold here after article PMC8214221, “Sequence determinants in the cathelicidin LL-37 that promote inflammation via presentation of RNA to scavenger receptors” (The Journal of Biological Chemistry, 2021).

The labels stand for the following.
T1: scavenger receptor (SR) B1 (human (endogenous in NHEK)) (UniProt Q8WTV0)
T1 sequence: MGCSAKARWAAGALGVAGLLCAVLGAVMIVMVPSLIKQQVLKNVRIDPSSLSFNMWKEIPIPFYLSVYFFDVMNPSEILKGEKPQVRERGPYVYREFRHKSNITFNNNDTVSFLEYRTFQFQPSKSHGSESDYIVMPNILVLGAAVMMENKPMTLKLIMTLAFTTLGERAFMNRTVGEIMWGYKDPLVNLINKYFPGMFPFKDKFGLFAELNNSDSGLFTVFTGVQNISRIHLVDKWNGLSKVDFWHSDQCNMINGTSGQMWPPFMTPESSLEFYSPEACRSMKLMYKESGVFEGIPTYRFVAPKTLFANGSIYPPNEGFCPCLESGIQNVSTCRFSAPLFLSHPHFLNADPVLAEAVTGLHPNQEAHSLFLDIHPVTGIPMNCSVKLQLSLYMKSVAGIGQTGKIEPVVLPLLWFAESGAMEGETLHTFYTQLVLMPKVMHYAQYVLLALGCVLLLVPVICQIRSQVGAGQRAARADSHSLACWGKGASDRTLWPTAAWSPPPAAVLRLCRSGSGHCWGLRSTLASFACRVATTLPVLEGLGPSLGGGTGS

These are yes or no findings as the source states them, for the method shown. Binding seen in cells or lysates may run through a third protein. Some entries that bind do so weakly or less than the wild type.

In the experiment the target is T1, scavenger receptor (SR) B1 (human (endogenous in NHEK)). The experiment is described as follows: proximity ligation; NHEKs treated with LL-34 peptides (2 μM) for 15 min, then biotinylated U1 dsRNA (2 μg/ml) for 60 min at 4 °C; washed, fixed in 4% paraformaldehyde; LL-37 antibody and SRB1 antibody; Duolink PLA, red signal counted in five fields; spatial correlation <40 nm; only the binder purified.
Take LLGDFFRKSKEKIGKEFKRIVQRIKDFLRNLVPR [LL-34 parent peptide]: the binding result is listed as “binds”.
As for LLGDFFRKSKEKIGKEFKRIVQRIKDFLRNAVPR [LL-34—L31A], the binding entry is “no binding (tested: 2 μM)”.
LLGDFFRKSKEKIGKEFKRIVQRAKDFLRNLVPR [LL-34—I24A]: the binding entry was “no binding (tested: 2 μM)”.
